Test results: paper PMC10620401
No constants are given. Whether binding was seen depends on the method and setting. In cells and extracts the contact can be indirect. Some entries that bind do so weakly or less than the wild type.

Protein sequences, listed by entry. Tags and fused reporters are not part of them. Lines headed by an entry give the natural chain unless they say otherwise; changes in a name come on top.
UniProt Q6IAA8: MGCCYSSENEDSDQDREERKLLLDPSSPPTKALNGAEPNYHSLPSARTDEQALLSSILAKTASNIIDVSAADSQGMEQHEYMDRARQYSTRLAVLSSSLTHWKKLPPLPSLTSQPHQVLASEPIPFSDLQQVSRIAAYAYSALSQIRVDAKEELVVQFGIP
UniProt P27449: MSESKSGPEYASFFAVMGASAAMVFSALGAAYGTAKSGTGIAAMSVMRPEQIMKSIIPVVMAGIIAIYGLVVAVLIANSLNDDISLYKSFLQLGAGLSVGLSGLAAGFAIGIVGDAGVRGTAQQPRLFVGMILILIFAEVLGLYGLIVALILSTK

Biological target: FLAG-tagged p18 (UniProt Q6IAA8)
Assay: co-IP; HEK293T cells with or without 1 mM D-mannose for 24 h; lysed in IP buffer, supernatants immunoprecipitated with the indicated antibodies overnight at 4 °C, protein A or G agarose beads for 3 h, five washes with IP buffer, immunoblot

- binding: binds
Substance: HA-tagged V0C (from UniProt P27449 1-155)
